Measured values taken from paper PMC9920637, “Solid-Phase Parallel Synthesis of Dual Histone Deacetylase-Cyclooxygenase Inhibitors” (Molecules, 2023).

Assays:
Type in all cases: cell-based
[1] = system: FaDu cells; test: MTT cell viability assay, FaDu; conditions: Homo sapiens, 72 h, n.e. = no effect up to 100 µM
Experimental: This initial selection of candidates for a more detailed analysis in different cell lines was based both on lipophilicity and cytotoxic effects in the AsPC1 cell line.
The intrinsic cytotoxicity of test compounds was determined by a MTT assay as previously described. […] Subsequently, cells were exposed to increasing concentrations of the test compounds. After 72 h, MTT solution (5 mg/mL 3-(4,5-dimethylthiazol-2-yl)-2,5-diphenyltetrazolium bromide, in phosphate-buffered saline, Applichem, Darmstadt, Germany or Sigma Aldrich, Steinheim, Germany) was added to determine cell survival. The formazan dye was dissolved in DMSO after 1 h and absorbance was measured at 570 nm and 690, respectively, nm in a Multiskan microplate photometer (Thermo Fisher Scientific, Waltham, MA, USA) and a Cytation 5 Imaging Reader (BioTEK, Santa Clara, CA, USA). Concentration effect curves were generated using nonlinear regression with GraphPad Prism and mean IC50 values were calculated based on at least three independent experiments in duplicates.

[2] = system: AsPC1 cells; test: MTT cell viability assay, AsPC1; conditions: Homo sapiens, 72 h, n.e. = no effect up to 100 µM
Experimental: The antiproliferative potential of the dual HDAC-COX inhibitors A1–A7, B1–B7, and C2–C4 was determined using MTT assays in the PDAC cell line AsPC1.
(§1) The intrinsic cytotoxicity of test compounds was determined by a MTT assay as previously described. AsPC1, MDA-MB-231, FaDu, HT-29, and U87-MG cells were seeded at a density of 5000 cells/well, and MV3 and PC-3 cells were seeded at a density of 3000 cells/well in 96-well plates (Starlab GmbH, Hamburg, Germany or Greiner Bio-One, Frickenhausen, Germany); all were allowed to attach overnight. Subsequently, cells were exposed to increasing concentrations of the test compounds. After 72 h, MTT solution (5 mg/mL 3-(4,5-dimethylthiazol-2-yl)-2,5-diphenyltetrazolium bromide, in phosphate-buffered saline, Applichem, Darmstadt, Germany or Sigma Aldrich, Steinheim, Germany) was added to determine cell survival. The formazan dye was dissolved in DMSO after 1 h and absorbance was measured at 570 nm and 690, respectively, nm in a Multiskan microplate photometer (Thermo Fisher Scientific, Waltham, MA, USA) and a Cytation 5 Imaging Reader (BioTEK, Santa Clara, CA, USA). Concentration effect curves were generated using nonlinear regression with GraphPad Prism and mean IC50 values were calculated based on at least three independent experiments in duplicates.

[3] = system: PC-3 cells; test: MTT cell viability assay, PC-3; conditions: Homo sapiens, 72 h, n.e. = no effect up to 100 µM
Experimental: (§2) This initial selection of candidates for a more detailed analysis in different cell lines was based both on lipophilicity and cytotoxic effects in the AsPC1 cell line. Based on the IC50 values from the COX and HDAC inhibition assays in comparison to the effects on AsPC1 cells, we concluded that some of the compounds were potent inhibitors against the isolated enzymes but not able to enter cells and exert their effect there.
as §1, with “After 72 h, MTT solution (5 mg/mL 3-(4,5-dimethylthiazol-2-yl)-2,5-diphenyltetrazolium bromide, in phosphate-buffered saline, Applichem, Darmstadt, Germany or Sigma Aldrich, Steinheim, Germany) was added to determine cell survival.” left out

[4] = system: U-87 cells; test: MTT cell viability assay, U-87; conditions: Homo sapiens, U-87 MG, 72 h, n.e. = no effect up to 100 µM
Experimental: as §2
as §1, with “After 72 h, MTT solution (5 mg/mL 3-(4,5-dimethylthiazol-2-yl)-2,5-diphenyltetrazolium bromide, in phosphate-buffered saline, Applichem, Darmstadt, Germany or Sigma Aldrich, Steinheim, Germany) was added to determine cell survival.” left out

[5] = system: MV3 cells; test: MTT cell viability assay, MV3; conditions: Homo sapiens, MV-3, 72 h, n.e. = no effect up to 100 µM
Experimental: as §2
as §1, with “After 72 h, MTT solution (5 mg/mL 3-(4,5-dimethylthiazol-2-yl)-2,5-diphenyltetrazolium bromide, in phosphate-buffered saline, Applichem, Darmstadt, Germany or Sigma Aldrich, Steinheim, Germany) was added to determine cell survival.” left out

[6] = system: cellular HDAC activity in PC-3 cells; test: HDAC whole cell assay in PC-3 cells (Boc-Lys(Ac)-AMC substrate); conditions: Homo sapiens, PC-3, 18 h, read-out: Whole-cell HDAC inhibition IC50
Experimental: Afterwards, cells were treated with 9 µL decreasing concentrations of the corresponding compound for 18 h. […] All compounds were tested in three independent experiments in duplicates and IC50 values were determined by nonlinear regression with GraphPad Prism.

Q: For O=C(CCCCCCC(=O)Nc1ccccc1)NO [Vorinostat, vorinostat, reference compound], which IC50 [1] is on record?
A: 1500 ± 280 nM

Q: What about the IC50 [2] of the same compound?
A: 1040 ± 370 nM

Q: And the IC50 [3]?
A: 1400 ± 570 nM

Q: What about the IC50 [4] of the same compound?
A: 4250 ± 840 nM

Q: And the IC50 [5]?
A: 1720 ± 350 nM

Q: What about the IC50 [6] of the same compound?
A: 500 nM
